Data: the supplement of paper PMC12819154, “High-throughput peptide-centric local stability assay extends protein–ligand identification to membrane proteins, tissues and bacteria” (Nature Structural & Molecular Biology, 2025)
Some of the results follow. Most entries show no effect beyond the scatter of the controls.

By UniProt entry, the sequences of proteins in these tests, tags left out. Where a name states a change or a piece, a line headed by the entry shows the natural chain unless it says otherwise.
UniProt Q9CWU4: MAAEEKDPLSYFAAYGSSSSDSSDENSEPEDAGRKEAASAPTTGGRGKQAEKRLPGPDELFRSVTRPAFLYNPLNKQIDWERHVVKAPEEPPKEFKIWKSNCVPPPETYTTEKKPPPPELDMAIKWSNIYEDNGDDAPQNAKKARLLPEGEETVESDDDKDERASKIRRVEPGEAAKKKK
UniProt Q9CY97: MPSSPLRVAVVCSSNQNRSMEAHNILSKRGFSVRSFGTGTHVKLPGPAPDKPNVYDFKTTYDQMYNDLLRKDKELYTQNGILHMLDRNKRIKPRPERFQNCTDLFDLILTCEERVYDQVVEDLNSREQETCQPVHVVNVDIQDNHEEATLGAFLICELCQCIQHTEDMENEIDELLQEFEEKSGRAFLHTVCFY
UniProt Q9CZB6: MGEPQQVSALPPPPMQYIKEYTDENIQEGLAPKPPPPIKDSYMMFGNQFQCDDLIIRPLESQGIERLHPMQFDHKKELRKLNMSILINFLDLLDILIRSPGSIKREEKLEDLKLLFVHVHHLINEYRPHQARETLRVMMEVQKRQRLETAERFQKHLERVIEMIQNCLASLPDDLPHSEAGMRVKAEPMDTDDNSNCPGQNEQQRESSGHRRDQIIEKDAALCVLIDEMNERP
UniProt Q9D0K2: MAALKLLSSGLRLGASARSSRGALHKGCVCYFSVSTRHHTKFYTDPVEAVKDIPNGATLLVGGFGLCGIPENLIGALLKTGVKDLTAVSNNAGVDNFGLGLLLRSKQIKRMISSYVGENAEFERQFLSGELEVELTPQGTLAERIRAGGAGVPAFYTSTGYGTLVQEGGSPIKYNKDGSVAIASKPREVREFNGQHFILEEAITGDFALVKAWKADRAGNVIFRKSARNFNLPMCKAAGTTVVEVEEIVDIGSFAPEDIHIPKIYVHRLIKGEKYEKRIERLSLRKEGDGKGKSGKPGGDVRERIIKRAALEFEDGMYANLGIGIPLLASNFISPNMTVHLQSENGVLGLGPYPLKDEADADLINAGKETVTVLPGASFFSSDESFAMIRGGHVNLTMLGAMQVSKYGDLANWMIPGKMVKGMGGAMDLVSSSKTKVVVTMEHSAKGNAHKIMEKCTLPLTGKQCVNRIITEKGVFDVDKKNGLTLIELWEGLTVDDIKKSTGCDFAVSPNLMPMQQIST
UniProt Q9CRC3: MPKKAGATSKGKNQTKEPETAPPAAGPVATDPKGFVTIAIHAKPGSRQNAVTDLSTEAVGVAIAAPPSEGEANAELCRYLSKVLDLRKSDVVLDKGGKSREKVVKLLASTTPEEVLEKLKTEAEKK
UniProt Q9CWL8: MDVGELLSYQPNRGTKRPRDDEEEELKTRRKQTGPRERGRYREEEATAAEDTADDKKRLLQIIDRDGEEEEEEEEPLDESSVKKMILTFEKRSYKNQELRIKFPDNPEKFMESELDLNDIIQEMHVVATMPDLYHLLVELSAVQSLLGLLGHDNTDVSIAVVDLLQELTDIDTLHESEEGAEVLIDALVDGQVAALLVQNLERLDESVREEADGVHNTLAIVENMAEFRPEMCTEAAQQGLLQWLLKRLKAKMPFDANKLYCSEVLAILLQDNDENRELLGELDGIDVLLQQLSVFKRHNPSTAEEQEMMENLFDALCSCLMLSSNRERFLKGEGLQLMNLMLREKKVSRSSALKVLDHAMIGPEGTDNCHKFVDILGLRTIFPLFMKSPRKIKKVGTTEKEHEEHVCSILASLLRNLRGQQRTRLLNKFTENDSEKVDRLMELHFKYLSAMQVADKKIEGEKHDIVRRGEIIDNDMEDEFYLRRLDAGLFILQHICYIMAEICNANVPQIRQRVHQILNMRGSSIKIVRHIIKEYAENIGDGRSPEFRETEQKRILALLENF
UniProt Q9CZX0: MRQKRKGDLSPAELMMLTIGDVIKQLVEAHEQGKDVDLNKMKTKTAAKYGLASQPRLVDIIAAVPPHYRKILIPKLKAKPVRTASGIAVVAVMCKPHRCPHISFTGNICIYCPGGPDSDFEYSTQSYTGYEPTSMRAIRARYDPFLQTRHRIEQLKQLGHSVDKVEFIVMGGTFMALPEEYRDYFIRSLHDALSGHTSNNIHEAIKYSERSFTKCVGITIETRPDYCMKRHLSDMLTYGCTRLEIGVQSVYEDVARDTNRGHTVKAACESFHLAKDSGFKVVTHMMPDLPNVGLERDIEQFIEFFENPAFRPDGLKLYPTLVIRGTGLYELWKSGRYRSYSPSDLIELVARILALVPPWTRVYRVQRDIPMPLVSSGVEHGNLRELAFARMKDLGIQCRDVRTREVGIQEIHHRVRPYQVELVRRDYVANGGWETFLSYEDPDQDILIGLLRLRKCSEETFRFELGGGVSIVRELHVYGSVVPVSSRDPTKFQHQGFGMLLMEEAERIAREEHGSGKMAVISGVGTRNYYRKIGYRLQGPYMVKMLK
UniProt Q9CYS6: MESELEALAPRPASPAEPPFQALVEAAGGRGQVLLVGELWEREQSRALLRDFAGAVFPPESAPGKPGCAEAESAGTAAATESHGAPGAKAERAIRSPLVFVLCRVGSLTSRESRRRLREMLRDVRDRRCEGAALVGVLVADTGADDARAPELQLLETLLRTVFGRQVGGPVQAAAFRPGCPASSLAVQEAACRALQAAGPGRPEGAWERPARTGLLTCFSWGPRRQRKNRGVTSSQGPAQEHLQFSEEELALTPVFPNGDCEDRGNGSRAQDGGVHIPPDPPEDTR
UniProt Q9D0C1, whole entry: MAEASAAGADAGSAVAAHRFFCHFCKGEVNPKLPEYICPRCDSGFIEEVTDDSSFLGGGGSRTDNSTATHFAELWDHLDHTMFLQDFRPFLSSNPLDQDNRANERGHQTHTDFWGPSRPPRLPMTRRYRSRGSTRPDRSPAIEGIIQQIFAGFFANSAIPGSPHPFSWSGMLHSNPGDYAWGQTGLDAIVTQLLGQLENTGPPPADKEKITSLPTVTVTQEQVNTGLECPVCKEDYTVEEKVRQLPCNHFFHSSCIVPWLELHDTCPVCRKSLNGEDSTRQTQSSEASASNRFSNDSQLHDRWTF
UniProt Q9CZA6: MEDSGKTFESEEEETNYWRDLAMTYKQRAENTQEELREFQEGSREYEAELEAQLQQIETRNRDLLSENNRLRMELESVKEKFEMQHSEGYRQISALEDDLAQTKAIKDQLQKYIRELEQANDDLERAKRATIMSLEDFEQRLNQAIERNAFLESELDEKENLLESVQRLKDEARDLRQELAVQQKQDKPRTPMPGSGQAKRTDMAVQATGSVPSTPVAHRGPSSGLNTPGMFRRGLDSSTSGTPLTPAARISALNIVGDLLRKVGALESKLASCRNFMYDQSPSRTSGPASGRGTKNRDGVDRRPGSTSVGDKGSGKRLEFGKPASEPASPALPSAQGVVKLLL
UniProt Q9D051: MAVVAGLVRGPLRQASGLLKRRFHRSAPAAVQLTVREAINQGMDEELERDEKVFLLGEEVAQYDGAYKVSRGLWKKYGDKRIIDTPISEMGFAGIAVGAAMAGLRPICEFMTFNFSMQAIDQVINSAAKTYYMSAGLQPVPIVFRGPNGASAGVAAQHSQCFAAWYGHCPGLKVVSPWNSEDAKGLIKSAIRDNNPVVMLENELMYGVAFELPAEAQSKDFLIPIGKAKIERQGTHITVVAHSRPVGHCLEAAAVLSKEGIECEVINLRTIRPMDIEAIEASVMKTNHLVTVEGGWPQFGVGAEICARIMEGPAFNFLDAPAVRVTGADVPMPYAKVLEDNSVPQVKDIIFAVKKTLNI
UniProt Q9CXU1: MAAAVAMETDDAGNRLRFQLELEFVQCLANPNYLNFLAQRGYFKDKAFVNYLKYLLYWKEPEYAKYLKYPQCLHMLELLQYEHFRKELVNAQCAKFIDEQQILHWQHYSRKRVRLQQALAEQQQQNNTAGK
UniProt Q9D0S9: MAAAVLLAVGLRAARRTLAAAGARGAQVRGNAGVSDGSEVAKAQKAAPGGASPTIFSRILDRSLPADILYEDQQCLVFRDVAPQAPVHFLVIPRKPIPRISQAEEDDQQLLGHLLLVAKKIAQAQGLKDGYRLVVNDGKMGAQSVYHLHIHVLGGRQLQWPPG
UniProt Q9CU65: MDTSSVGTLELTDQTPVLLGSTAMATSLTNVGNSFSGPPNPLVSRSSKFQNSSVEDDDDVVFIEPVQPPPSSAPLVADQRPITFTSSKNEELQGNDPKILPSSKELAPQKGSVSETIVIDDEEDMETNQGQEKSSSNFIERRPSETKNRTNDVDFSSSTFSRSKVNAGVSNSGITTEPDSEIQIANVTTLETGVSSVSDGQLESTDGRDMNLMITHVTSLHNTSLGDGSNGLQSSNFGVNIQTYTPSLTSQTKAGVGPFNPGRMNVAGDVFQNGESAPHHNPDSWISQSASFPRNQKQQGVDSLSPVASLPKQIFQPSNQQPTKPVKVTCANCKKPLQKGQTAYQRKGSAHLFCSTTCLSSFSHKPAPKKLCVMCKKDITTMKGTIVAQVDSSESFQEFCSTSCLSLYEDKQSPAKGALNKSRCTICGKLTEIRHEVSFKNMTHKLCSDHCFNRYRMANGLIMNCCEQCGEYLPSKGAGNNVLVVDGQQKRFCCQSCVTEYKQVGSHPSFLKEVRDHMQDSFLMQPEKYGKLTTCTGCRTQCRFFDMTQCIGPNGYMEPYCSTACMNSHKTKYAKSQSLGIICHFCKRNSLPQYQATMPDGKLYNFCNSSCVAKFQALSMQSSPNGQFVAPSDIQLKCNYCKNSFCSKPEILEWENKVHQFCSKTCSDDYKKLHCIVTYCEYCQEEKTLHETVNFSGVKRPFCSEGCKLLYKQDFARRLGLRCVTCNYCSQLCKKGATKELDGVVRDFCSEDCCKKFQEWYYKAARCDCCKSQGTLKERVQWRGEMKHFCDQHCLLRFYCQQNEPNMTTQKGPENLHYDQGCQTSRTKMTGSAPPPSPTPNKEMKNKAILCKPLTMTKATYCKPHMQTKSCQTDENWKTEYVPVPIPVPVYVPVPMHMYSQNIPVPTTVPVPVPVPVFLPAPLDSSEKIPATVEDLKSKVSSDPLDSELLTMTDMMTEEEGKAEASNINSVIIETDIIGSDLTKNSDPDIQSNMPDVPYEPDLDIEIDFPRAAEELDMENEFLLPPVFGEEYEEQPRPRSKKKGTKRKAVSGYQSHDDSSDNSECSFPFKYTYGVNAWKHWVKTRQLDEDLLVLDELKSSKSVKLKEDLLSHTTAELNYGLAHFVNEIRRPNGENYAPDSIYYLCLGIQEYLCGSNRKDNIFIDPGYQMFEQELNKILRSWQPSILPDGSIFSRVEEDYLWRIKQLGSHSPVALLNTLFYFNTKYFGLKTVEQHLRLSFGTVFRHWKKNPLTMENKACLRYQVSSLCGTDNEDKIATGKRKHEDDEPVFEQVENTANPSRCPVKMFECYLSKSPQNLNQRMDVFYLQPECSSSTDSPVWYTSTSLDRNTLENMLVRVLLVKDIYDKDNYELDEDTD
UniProt Q9CZJ1: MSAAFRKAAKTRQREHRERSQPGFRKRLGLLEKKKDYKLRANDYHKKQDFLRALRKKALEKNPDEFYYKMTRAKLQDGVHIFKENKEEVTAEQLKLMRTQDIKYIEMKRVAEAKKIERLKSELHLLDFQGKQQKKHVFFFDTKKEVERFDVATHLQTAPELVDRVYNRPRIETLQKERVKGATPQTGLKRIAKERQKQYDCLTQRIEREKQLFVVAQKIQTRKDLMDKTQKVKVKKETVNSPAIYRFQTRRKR
UniProt Q9CWB7: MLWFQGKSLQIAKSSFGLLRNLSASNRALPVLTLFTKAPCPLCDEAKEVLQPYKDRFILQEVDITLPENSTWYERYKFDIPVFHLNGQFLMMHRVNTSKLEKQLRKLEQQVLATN
UniProt Q9D0E1: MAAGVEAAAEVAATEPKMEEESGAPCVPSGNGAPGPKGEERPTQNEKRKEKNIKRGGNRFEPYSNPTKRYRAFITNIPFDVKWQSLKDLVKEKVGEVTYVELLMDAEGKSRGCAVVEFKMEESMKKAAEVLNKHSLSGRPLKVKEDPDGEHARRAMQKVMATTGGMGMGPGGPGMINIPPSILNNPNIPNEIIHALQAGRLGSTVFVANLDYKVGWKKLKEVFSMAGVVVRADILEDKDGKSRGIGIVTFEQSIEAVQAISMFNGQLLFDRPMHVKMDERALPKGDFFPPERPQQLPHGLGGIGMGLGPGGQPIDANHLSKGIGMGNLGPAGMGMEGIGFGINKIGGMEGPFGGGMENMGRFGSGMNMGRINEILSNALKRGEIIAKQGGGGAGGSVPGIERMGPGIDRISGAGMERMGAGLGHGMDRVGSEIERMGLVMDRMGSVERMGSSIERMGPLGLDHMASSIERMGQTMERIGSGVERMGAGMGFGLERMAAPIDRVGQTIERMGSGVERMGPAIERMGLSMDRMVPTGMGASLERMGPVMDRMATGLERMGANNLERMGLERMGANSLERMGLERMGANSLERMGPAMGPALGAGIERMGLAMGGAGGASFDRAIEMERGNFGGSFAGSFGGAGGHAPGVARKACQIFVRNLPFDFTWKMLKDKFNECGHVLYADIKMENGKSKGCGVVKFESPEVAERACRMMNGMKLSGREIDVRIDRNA
UniProt Q9CRC0: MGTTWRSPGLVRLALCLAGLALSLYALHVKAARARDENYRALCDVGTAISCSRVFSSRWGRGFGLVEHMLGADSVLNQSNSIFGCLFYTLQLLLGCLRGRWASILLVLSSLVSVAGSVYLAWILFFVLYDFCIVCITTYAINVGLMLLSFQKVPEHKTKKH

Compound: CN[C@@H]1C[C@H]2O[C@@](C)([C@@H]1OC)n1c3ccccc3c3c4c(c5c6ccccc6n2c5c31)C(=O)NC4 [staurosporine]
Experiment: log2 fold change of tryptic peptide abundance, ligand vs vehicle (limited proteolysis) (log2 ratio); higher = more trypsin-susceptible (destabilized)
Conditions: ligand concentration: 20 uM; sample: mouse liver crude lysate; replicate design: treated separately

| Target | log2 fold change |
| --- | --- |
| UniProt Q9CWW7 (peptide sequence: RPPPTQQQPQQSQK, peptide start residue: 241) | -0.294 |
| UniProt Q9CWU4 (peptide sequence: SVTRPAFLYNPLNK, peptide start residue: 63) | -0.0739 |
| UniProt Q9CY97 (peptide sequence: SMEAHNILSK, peptide start residue: 19) | 0.236 |
| UniProt Q9CZB6 (peptide sequence: LHPMQFDHKK, peptide start residue: 67) | 0.17 |
| UniProt Q9D0K2 (peptide sequence: DGSVAIASKPR, peptide start residue: 177) | -0.323 |
| UniProt Q9CRC3 (peptide sequence: KSDVVLDK, peptide start residue: 88) | -0.292 |
| UniProt Q9CWL8 (peptide sequence: VHQILNMR, peptide start residue: 515) | 0.214 |
| UniProt Q9CZX0 (peptide sequence: GTGLYELWK, peptide start residue: 325) | 0.363 |
| UniProt Q9CYS6 (peptide sequence: AQDGGVHIPPDPPEDTR, peptide start residue: 270) | -0.467 |
| UniProt Q9D0C1 (peptide sequence: LPEYICPR, peptide start residue: 33) | -0.234 |
| UniProt Q9CSH3 (peptide sequence: WYNEHLKR, peptide start residue: 155) | -0.672 |
| UniProt Q9CZA6 (peptide sequence: AIKDQLQK, peptide start residue: 105) | 0.304 |
| UniProt Q9CX86 (peptide sequence: AVSREDSARPGAHAK, peptide start residue: 82) | -1.02 |
| UniProt Q9D051 (peptide sequence: DIIFAVKK, peptide start residue: 348) | 0.0897 |
| UniProt Q9CWY8 (peptide sequence: ITSYFSQGPQTCRPQAPHR, peptide start residue: 270) | 0.511 |
| UniProt Q9D0F9 (peptide sequence: IDAMHGVVGPYVKK, peptide start residue: 222) | -0.804 |
| UniProt Q9CXU1 (peptide sequence: FIDEQQILHWQHYSR, peptide start residue: 96) | 0.253 |
| UniProt Q9D0S9 (peptide sequence: KIAQAQGLK, peptide start residue: 120) | -0.163 |
| UniProt Q9D112 (peptide sequence: GQLETNEEEDGLRK, peptide start residue: 85) | -0.666 |
| UniProt Q9CU65 (peptide sequence: LTTCTGCR, peptide start residue: 532) | -0.421 |
| UniProt Q9CZJ1 (peptide sequence: ALEKNPDEFYYK, peptide start residue: 58) | -0.387 |
| UniProt Q9CWB7 (peptide sequence: KLEQQVLATN, peptide start residue: 106) | -0.37 |
| UniProt Q9D0E1 (peptide sequence: LKEVFSMAGVVVR, peptide start residue: 219) | -0.432 |
| UniProt Q9D0N8 (peptide sequence: QIPVSPGSR, peptide start residue: 141) | 0.225 |
| UniProt Q9CRC0 (peptide sequence: ARDENYR, peptide start residue: 34) | 0.657 |

2 records drawn at random from those above, as already listed:

| Target | log2 fold change |
| --- | --- |
| UniProt Q9D0K2 (peptide sequence: DGSVAIASKPR, peptide start residue: 177) | -0.323 |
| UniProt Q9CZB6 (peptide sequence: LHPMQFDHKK, peptide start residue: 67) | 0.17 |
